The text below walks through data of paper PMC12632923.

Protein sequences, listed by entry. Tags and fused reporters are not part of them. Lines headed by an entry give the natural chain unless they say otherwise; changes in a name come on top.
UniProt Q9FJF4: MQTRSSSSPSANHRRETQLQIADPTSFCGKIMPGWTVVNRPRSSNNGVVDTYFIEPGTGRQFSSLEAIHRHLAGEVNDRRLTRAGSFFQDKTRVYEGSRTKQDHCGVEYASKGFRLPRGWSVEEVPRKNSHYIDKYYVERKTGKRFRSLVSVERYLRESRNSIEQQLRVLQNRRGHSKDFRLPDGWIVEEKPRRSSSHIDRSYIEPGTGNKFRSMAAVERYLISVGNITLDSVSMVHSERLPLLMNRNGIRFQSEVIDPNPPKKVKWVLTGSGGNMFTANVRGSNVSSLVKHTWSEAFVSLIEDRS

Results are given in words; binding and its absence hold for the method and conditions named. Binding seen in cells or lysates may run through a third protein. Binding calls can cover weak binding; strength is not graded here.

The target in the experiment is T1, … DNA …ON 3 (IDM3) (Arabidopsis thaliana) (UniProt Q9SYQ0).
T1 sequence: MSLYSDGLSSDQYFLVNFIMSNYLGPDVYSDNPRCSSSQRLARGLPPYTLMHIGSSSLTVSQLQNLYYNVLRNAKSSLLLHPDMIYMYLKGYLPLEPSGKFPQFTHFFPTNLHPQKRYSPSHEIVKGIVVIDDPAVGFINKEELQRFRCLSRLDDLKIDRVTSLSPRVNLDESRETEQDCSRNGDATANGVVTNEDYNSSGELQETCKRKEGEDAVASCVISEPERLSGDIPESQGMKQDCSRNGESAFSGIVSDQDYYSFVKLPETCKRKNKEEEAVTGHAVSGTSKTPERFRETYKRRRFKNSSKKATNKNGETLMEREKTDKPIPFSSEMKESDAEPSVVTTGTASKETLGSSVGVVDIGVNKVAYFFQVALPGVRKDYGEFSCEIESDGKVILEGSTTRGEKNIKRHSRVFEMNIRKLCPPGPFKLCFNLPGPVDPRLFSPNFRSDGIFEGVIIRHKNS
The experiment can be described thus: split reporter; BiFC; first protein listed tagged with nYFP, second with cYFP; YFP fluorescence imaged and quantified.

As to “MBD7 StkyC domain (from UniProt Q9FJF4) (domain or fragment)”, the binding entry is reported as “binds”.
